Measurements reported in PubChem BioAssay AID488840 (Broad Institute, 2010).
The campaign covered roughly 1,400 compounds. About 45 (3%) were called active.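 How the source made its calls: active means half-maximal dose of signal decrease from fit no higher than ten times the top valid tested dose; inconclusive means fit invalid, or curve flat with 30 to 70% inhibition; inactive means the rest.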 The list shows a part of the results. Potency and affinity values are given separately.

By UniProt entry, the sequences of proteins in these tests, tags left out. Where a name states a change or a piece, a line headed by the entry shows the natural chain unless it says otherwise.
UniProt O75164: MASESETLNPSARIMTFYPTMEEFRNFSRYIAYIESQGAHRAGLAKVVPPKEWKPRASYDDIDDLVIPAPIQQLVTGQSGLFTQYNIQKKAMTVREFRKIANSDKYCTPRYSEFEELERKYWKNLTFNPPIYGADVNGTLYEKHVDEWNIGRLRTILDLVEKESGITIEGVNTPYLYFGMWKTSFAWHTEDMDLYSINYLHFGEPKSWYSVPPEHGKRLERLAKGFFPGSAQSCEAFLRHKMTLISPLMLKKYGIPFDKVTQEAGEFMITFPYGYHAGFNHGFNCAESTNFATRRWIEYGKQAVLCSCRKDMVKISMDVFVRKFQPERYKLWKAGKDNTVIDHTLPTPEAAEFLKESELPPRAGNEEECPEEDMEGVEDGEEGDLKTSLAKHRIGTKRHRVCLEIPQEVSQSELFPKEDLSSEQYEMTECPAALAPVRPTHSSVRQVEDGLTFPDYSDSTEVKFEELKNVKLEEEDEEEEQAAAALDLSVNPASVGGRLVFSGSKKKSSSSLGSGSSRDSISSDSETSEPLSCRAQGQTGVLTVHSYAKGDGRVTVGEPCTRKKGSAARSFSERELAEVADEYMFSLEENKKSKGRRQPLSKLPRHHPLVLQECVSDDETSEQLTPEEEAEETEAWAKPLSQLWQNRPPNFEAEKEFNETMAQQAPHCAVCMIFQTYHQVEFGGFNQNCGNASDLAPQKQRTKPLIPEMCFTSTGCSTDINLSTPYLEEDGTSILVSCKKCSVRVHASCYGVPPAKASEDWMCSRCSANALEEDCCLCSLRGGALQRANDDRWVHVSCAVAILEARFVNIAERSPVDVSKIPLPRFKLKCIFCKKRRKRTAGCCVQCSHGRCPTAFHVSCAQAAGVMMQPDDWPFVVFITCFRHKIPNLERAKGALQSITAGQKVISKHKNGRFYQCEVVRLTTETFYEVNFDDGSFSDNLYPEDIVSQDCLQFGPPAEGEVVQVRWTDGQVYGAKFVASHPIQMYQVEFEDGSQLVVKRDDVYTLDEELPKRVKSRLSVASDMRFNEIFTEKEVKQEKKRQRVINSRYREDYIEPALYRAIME

Each compound was assayed against Lysine-specific demethylase 4A (Homo sapiens) (UniProt O75164) (assay: inhibition of JMJD2A H3K9me3 demethylation – biochemical, DELFIA europium, cherry-picked samples, selectivity assay for GASC-1 inhibitor project, dose response (AID 488840;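 further: europium signal reports the dimethyl H3K9 product detected by antibody so inhibitors lower it; 0% = median of neutral control wells and -100% = median of positive control wells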)). Conditions: GST-JMJD2A(1-420) H3K9me3 demethylation; at 6 µM (top of the series) unless noted.

Activity change, negative = inhibition, inactive:
C[C@H](CO)N1C[C@H](C)[C@H](CN(C)S(=O)(=O)c2ccccc2)Oc2c(NS(C)(=O)=O)cccc2C1=O 2.61%
Cc1ccc(S(=O)(=O)NC(=O)NC(C)Cc2ccccc2)cc1 (stereo not given) -0.228%
CCN(Cc1nc(-c2ccccc2)no1)C(=O)c1ccco1 -0.912%
O=c1cc(-c2ccc(O)c(O)c2)oc2c(C3O[C@H](CO)[C@@H](O)[C@H](O)[C@H]3O)c(O)cc(O)c12 (stereo not given in full) -24%
O=C(CSc1nc(O)c(Cc2ccccc2)c(=O)[nH]1)c1ccccc1 0.275%
COC(=O)c1c(-c2cccs2)csc1NC(=O)CN1CCOCC1 7.8%
CN(C)CCNC(=O)c1onc(CSc2ccncc2)c1C(=O)NCCN(C)C -1.39%
NC(=O)COC(=O)Cc1coc2cc3c(cc12)CCC3 -1.46%
CC1CN(Cc2ccccc2)c2nc3c(c(=O)n(C)c(=O)n3C)n2C1 (stereo not given) -0.543%
COc1cc2cnncc2cc1OC 1.52%
C[C@H](CO)N1C[C@H](C)[C@@H](CN(C)CC2CCCCC2)Oc2c(NC(=O)C3CC3)cccc2C1=O 0.973%
O=C(N/N=C/c1ccccc1)c1c(O)c2ccccc2[nH]c1=O -1.81%
COc1cc(CN2CCN(C(=O)CC(C)C)CC2)cc(OC)c1OC 3%
COc1ccc(NC(=O)C2OC3OC(C)(C)OC3C3OC(C)(C)OC23)cc1 (stereo not given) 3.01%
COc1ccc2c(c1)CC(C1(O)C(=O)N(C)c3ccccc31)C2=O (stereo not given) 3.41%
COc1ccc(N2CCN(C(=O)CSc3nnc(-c4ccco4)n3C)CC2)cc1 3.12%
Cc1ccc(C(O)(C(=O)NNc2ccccn2)c2ccc(C)cc2)cc1 -2.22%
COc1ccc(N=c2ssnc2Cl)cc1 -4.28%
CC(=O)N1C(c2ccccc2O)C[C@]2(C)CC(=O)NC12 (stereo not given in full) 1.27%
CC(SCc1ccccc1)C(=O)Nc1ccccc1 (stereo not given) 0.0984%
C/C(=N\N1CCN(c2ccccc2)CC1)c1ccncc1 -3.29%
CC1=C(C(=O)OCC2CCCO2)C(c2ccccc2OC(C)C)C2=C(CC(c3ccco3)CC2=O)N1 (stereo not given) 3.65%
Cc1ccc(S(=O)(=O)N2[C@@H](c3ccc(Br)cc3)C(C(=O)O)=CC[C@H]2c2cccc(Cl)c2)cc1 4.46%
CN1CCN(c2ccc([N+](=O)[O-])cc2C(=O)N2CCOCC2)CC1 6.45%
CCN(CC)c1ccc(C(=O)OCC(=O)N2CCCC2)cc1 1.81%
C/C(CC(=O)Nc1cccc(Cl)c1Cl)=N\NC(=O)c1ccccc1N 0.587%
O=C(C1CCCCC1)N1CCC(c2nc3c(nnn3Cc3c(F)cccc3Cl)c(=O)[nH]2)CC1 2.48%
C[C@@H]1CN([C@H](C)CO)C(=O)c2cc(NC(=O)Cc3ccccc3)ccc2O[C@H]1CN(C)Cc1ccc(Oc2ccccc2)cc1 14.2%
COc1cc(N)c(C(O)c2nccc3cc(OC)c(OC)cc23)cc1OC (stereo not given) 5.45%
COc1ccc(/C=N/Nc2ncnc(Cl)c2N)cc1OC -0.617%
O=C(c1cc2c(s1)CCC2)N1C(=O)c2ccccc2S1(=O)=O -5.3%
Cc1nc2ccc(NC(=O)c3oc4ccc(F)cc4c3C)cc2s1 0.204%
CCC(C)[C@H](NC(=O)NCc1ccccc1Cl)C(=O)O (stereo not given in full) 1.47%
O=C(Nc1nnc(-c2cc(Cl)ccc2Cl)o1)c1ccco1 -0.944%
Cc1ccccc1N=C1N=C(N)c2ccccc21 4.31%
CN(C)/C=N/c1sccc1C(N)=O -0.776%
Cc1nnc(SCc2nnc(-c3ccccc3)o2)n(N)c1=O -3.23%
Cc1noc(C)c1COc1ccc(C(=O)NCC2CCCO2)cc1 (stereo not given) -4.92%
Cc1cccc(C(=O)NCC(c2ccco2)N2CCc3ccccc32)c1 (stereo not given) -2.87%
O=C(CSc1ncccn1)NCc1ccc(F)cc1 4.06%
CCO[C@@H]1OC(C(=O)NC2CC2)=C[C@H](c2c[nH]c3ccccc23)[C@H]1CCCO -1.12%
CCOc1ccc(NC(=O)NC(=O)N(C(C)C)S(C)(=O)=O)cc1 0.117%
CCn1c(=O)c(C(=O)NCCc2ccc(Cl)cc2)c(O)c2ccccc21 7.09%
CCCCC(=O)Nc1ccccc1N1CCN(c2ccc(F)cc2)CC1 -3.84%
O=C(Nc1ccccc1N1CCCCC1)c1cccc(F)c1 -2.14%
CCn1c(SCC(=O)c2ccc(C)cc2)nnc1-c1ccoc1C 2.33%
CN(C)CCN(C(=O)/C=C/c1cccs1)c1nc2ccc(F)cc2s1 -0.0863%
O=C(CSc1nc2ccccc2c(=O)n1Cc1ccc(C(=O)NC2CC2)cc1)NCc1ccco1 1.04%
Cc1cccc(N2C(=O)C3C4C=CC(C4)C3C2=O)c1 (stereo not given) -2.32%
COc1ccc(NC(=O)C2CCCCN2N)cc1OCC(C)C (stereo not given) 5.12%
COc1ccccc1CNC(=O)c1cc(-c2ccccc2)nn1CC1CC(c2cccnc2)=NO1 (stereo not given) 1.44%
CC(=O)Nc1ccc2nc(CN3CCC(CO)(CCc4ccccc4)CC3)ccc2c1 1.69%
COc1ccc(-c2nc(C#N)c(NCc3ccc(F)cc3)o2)cc1OC 3.44%
C[C@H](CO)N1C[C@H](C)[C@@H](CN(C)C(=O)Nc2ccc(C(F)(F)F)cc2)Oc2c(NC(=O)Nc3ccc4c(c3)OCO4)cccc2C1=O -0.395%
CC[C@@]1(C(=O)OC)N[C@H](CN(C)C(=O)Nc2ccc(Cl)cc2)[C@@H]2C(=O)N(Cc3ccccc3)C(=O)[C@@H]21 3.72%
O=C(Cn1cnc2c(OCc3ccccc3)ncnc21)NCCN1CCOCC1 0.142%
CN(C)/C=C1\C(=O)NN=C1c1ccccc1 0.566%
COc1ccc2[nH]c(=O)c(CN(CCCN(C)C)C(=O)Nc3ccc(F)cc3)cc2c1 -1.96%
CCC(=O)Nc1ccc(NC(=O)Cc2ccccc2)cn1 1.05%
Cc1cc(C(F)(F)F)nn1C(=O)c1cccnc1Cl -3.32%
Nc1c(C(=O)OCC(=O)Nc2ccc(Cl)cc2[N+](=O)[O-])[nH]c(=O)[nH]c1=O -1.24%
COc1ccc(S(=O)(=O)N(C)C[C@H]2Oc3ccc(NS(=O)(=O)c4cccs4)cc3CC(=O)N([C@H](C)CO)C[C@H]2C)cc1 4.03%
COCCn1c(N)c(C(=O)NCC2CCCO2)c2nc3ccccc3nc21 (stereo not given) 5.88%
Cc1cc(C)cc(C(=O)N2CCC(C(N)=O)CC2)c1 -0.587%
CCNC(=S)NC(=NCc1cccnc1)Nc1nc(C)cc(C)n1 9.23%
C=CCn1c(N)c(-c2nc3ccccc3n2C)sc1=S 3.81%
Cc1ccc(S(=O)(=O)N2CCN(C(=O)N3CCOCC3)CC2)cc1C 1.94%
N#Cc1cnc(NOCc2ccc(Cl)cc2)nc1 1.33%
Cc1cccn2c(=O)c(C(=O)NC3CC(C)CC(C)(C)C3)c(O)nc12 (stereo not given) -0.897%
O=C(c1cc2ccccc2oc1=O)N1CCN(CCc2ccccc2)CC1 1.84%
NC(=O)C1CCN(c2nc(-c3ccc4c(c3)OCCO4)cs2)CC1 0.679%
N#Cc1cnn(CC2CCCCC2)c1N 2.59%
Fc1ccc(NC(=S)Nc2ccc(Cl)cc2Cl)cc1 2.35%
O=c1c2c(nc3c(-c4cccc5ccccc45)c[nH]n13)CCC2 -0.649%
CCSCC1COC(c2cccn2Cc2ccc(C)cc2)=N1 (stereo not given) -4.65%
O=C(COC(=O)Cc1ccccc1F)Nc1ccc(SC(F)F)cc1 -4.57%
O=C(CN1C(=O)NC2(CCCC2)C1=O)Nc1nc(-c2ccccc2)cs1 -5.41%
O=[N+]([O-])c1ccc(N2CCN(S(=O)(=O)c3ccc(Cl)cc3)CC2)cc1NCc1cccnc1 0.661%
C[C@H](CO)N1C[C@H](C)[C@@H](CN(C)Cc2ccc(Cl)c(Cl)c2)Oc2c(NC(=O)c3ccncc3)cccc2C1=O 4.03%
Cc1[nH]n(-c2ccccc2)c(=O)c1N=Nc1nccs1 -5.78%
COC(=O)c1cc(S(=O)(=O)N2CCN(c3ccc(F)cc3)CC2)c[nH]1 -2.52%
Cc1cccn2c(=O)c(/C=N/O)c(N3CCCC3)nc12 -2.96%
CN(C)/C=C1/Nc2ccccc2C1=O 3.33%
CC1CCCC(NC(=O)COC(=O)c2ccc(N(C)C)cc2)C1C (stereo not given) -4.03%
C[C@H](CO)N1C[C@H](C)[C@@H](CN(C)Cc2ccc(C(=O)O)cc2)Oc2c(NC(=O)c3ccncc3)cccc2C1=O 2.71%
COC(=O)[C@]1(Cc2ccccc2)N[C@H](CN(C)S(=O)(=O)c2ccc(-c3ccccc3)cc2)[C@@H]2C(=O)N(C)C(=O)[C@@H]21 -0.613%
Cc1nnc(SCC(=O)Nc2sccc2C(N)=O)n1Cc1ccccc1 8.28%
CCC(C)(C)NC(=O)C(c1ccc(C)o1)N(Cc1cccs1)C(=O)Cn1nnc2ccccc21 (stereo not given) -1.28%
Clc1ccc(N=c2ssnc2Cl)nc1 -2.24%
OCc1csc(=Nc2ccccc2)n1-c1ccccc1 5.61%

Compounds from the list above with a Cl atom (16):
Activity change, negative = inhibition, inactive:
COc1ccc(N=c2ssnc2Cl)cc1 -4.28%
Cc1ccc(S(=O)(=O)N2[C@@H](c3ccc(Br)cc3)C(C(=O)O)=CC[C@H]2c2cccc(Cl)c2)cc1 4.46%
C/C(CC(=O)Nc1cccc(Cl)c1Cl)=N\NC(=O)c1ccccc1N 0.587%
O=C(C1CCCCC1)N1CCC(c2nc3c(nnn3Cc3c(F)cccc3Cl)c(=O)[nH]2)CC1 2.48%
COc1ccc(/C=N/Nc2ncnc(Cl)c2N)cc1OC -0.617%
CCC(C)[C@H](NC(=O)NCc1ccccc1Cl)C(=O)O (stereo not given in full) 1.47%
O=C(Nc1nnc(-c2cc(Cl)ccc2Cl)o1)c1ccco1 -0.944%
CCn1c(=O)c(C(=O)NCCc2ccc(Cl)cc2)c(O)c2ccccc21 7.09%
CC[C@@]1(C(=O)OC)N[C@H](CN(C)C(=O)Nc2ccc(Cl)cc2)[C@@H]2C(=O)N(Cc3ccccc3)C(=O)[C@@H]21 3.72%
Cc1cc(C(F)(F)F)nn1C(=O)c1cccnc1Cl -3.32%
Nc1c(C(=O)OCC(=O)Nc2ccc(Cl)cc2[N+](=O)[O-])[nH]c(=O)[nH]c1=O -1.24%
N#Cc1cnc(NOCc2ccc(Cl)cc2)nc1 1.33%
Fc1ccc(NC(=S)Nc2ccc(Cl)cc2Cl)cc1 2.35%
O=[N+]([O-])c1ccc(N2CCN(S(=O)(=O)c3ccc(Cl)cc3)CC2)cc1NCc1cccnc1 0.661%
C[C@H](CO)N1C[C@H](C)[C@@H](CN(C)Cc2ccc(Cl)c(Cl)c2)Oc2c(NC(=O)c3ccncc3)cccc2C1=O 4.03%
Clc1ccc(N=c2ssnc2Cl)nc1 -2.24%

Grouped by structure, those above containing a CF3 group.
Activity change, negative = inhibition, inactive:
C[C@H](CO)N1C[C@H](C)[C@@H](CN(C)C(=O)Nc2ccc(C(F)(F)F)cc2)Oc2c(NC(=O)Nc3ccc4c(c3)OCO4)cccc2C1=O -0.395%
Cc1cc(C(F)(F)F)nn1C(=O)c1cccnc1Cl -3.32%
